Measurements published in PMC8274477.
These are yes or no findings as the source states them, for the method shown. Some binding calls cover weakened binding; strength is not graded here.

Protein sequences, listed by entry. Tags and fused reporters are not part of them.
UniProt Q15717: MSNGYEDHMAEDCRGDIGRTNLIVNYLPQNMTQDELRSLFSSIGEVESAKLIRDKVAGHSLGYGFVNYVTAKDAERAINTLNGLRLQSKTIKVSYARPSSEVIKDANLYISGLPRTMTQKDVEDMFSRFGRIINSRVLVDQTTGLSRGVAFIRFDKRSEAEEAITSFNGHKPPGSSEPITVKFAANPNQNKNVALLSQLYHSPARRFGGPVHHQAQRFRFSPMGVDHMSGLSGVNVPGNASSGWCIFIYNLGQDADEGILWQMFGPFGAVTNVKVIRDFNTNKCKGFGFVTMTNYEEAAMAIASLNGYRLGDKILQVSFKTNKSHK

Assays:
Assay in all cases: peptide or protein array; HuProt human proteome microarray; 5 ug/5 ml biotin-labelled LUBAC or OTULIN in solution, 1 h at room temperature; Cy5-streptavidin, scanned at 635 nm; BSA as negative control; hits: Z-score >= 3 and I_(Mean_Ratio) >= 1.4; both purified
ELAVL1 (human) = ELAVL1 (human) (UniProt Q15717)
SHMT1 (human) = target: T1, SHMT1 (human) (UniProt P34896)
T1 sequence: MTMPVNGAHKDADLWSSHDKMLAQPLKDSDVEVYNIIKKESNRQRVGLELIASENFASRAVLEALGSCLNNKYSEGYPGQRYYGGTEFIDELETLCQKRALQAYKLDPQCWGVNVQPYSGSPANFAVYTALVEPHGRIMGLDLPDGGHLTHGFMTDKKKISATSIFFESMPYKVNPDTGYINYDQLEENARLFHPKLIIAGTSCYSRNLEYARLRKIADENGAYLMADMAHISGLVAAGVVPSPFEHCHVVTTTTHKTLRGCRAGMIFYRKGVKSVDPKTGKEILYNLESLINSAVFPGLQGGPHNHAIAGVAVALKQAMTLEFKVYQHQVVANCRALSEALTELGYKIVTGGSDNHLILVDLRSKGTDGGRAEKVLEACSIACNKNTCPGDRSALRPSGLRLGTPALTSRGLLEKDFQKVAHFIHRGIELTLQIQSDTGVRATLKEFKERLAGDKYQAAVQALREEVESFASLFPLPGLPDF

TRIM24 (human) = target: T2, TRIM24 (human) (UniProt O15164)
T2 sequence: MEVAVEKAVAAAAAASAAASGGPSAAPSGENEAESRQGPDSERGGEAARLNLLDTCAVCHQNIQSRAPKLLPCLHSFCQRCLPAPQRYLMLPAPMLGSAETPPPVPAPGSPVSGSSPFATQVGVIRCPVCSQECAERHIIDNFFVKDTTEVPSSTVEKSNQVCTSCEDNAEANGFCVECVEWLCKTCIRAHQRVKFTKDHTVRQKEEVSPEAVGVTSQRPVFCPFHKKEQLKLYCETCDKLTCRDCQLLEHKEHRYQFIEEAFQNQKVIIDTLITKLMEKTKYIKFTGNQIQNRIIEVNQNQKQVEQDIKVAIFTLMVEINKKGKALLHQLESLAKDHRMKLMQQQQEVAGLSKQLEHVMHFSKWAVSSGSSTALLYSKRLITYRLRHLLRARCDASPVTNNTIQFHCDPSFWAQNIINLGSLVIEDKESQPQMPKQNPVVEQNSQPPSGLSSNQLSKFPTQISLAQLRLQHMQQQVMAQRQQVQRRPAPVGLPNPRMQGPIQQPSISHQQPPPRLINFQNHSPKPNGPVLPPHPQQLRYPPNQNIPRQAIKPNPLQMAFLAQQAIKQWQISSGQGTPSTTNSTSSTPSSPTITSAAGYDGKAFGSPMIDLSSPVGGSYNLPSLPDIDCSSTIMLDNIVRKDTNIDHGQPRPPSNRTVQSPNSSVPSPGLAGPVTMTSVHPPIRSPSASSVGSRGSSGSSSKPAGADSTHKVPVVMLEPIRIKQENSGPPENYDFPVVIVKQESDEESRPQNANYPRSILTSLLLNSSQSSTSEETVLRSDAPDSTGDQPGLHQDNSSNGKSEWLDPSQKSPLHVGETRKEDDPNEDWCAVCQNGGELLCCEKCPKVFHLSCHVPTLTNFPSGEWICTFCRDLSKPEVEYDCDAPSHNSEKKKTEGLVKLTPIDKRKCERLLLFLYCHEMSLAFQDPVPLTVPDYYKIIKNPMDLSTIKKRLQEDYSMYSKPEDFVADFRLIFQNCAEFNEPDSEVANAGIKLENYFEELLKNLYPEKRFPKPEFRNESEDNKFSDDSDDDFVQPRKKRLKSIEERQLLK

FAM120B (human) = target: T3, FAM120B (human) (UniProt Q96EK7)
T3 sequence: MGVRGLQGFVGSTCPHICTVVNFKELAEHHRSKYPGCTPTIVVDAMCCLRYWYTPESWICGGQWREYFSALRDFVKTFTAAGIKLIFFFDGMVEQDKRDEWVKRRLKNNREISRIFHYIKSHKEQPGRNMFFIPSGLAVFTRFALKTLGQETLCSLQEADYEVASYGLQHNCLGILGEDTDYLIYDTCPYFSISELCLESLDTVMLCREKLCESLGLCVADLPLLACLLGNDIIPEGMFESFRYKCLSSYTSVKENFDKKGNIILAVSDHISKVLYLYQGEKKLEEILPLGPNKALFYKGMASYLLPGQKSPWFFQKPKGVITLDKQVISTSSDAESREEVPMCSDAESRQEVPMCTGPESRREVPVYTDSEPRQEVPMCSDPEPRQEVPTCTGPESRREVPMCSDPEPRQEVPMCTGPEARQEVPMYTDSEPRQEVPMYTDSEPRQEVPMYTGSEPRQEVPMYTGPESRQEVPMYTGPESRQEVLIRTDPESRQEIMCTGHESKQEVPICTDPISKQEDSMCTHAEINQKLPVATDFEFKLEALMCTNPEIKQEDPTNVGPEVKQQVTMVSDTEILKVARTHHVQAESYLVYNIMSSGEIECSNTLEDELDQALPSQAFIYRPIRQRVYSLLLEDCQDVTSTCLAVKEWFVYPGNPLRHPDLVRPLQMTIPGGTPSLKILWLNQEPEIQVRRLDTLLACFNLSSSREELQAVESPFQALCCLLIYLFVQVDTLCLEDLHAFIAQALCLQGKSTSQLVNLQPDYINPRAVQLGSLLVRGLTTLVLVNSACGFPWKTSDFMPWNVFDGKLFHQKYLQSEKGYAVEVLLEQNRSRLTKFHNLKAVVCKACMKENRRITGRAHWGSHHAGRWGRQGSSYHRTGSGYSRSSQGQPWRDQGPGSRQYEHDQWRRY

Measured: binding

linear ubiquitin chain assembly complex (LUBAC), purified as HIS-tagged HOIP with the subunit HOIL-1, biotin-labelled (from UniProt Q96EP0 1-1072; Q9BYM8 1-510)
binds: all assays above
